Results taken from article PMC12793716, “Linked dimers of the AAA+ ATPase Msp1 reveal energetic demands and mechanistic plasticity for substrate extraction from lipid bilayers” (Febs Letters, 2025).
These are yes or no findings as the source states them, for the method shown. Where a sequence is shown, tags or fusion partners need not be part of it.

Target: T1, Msp1 monomer with a C‐terminal twin strep tag (His6‐Msp1 WT‐2xStrep Monomer), soluble, P28737
T1 chain: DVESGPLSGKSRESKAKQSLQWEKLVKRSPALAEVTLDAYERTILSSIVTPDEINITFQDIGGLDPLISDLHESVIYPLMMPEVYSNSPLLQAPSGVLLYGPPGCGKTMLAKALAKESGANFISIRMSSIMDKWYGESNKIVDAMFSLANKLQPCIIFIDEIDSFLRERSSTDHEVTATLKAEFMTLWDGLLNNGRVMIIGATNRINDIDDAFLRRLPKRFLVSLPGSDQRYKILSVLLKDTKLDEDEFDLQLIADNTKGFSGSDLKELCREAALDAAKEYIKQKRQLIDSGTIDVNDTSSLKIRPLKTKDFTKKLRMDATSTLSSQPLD
Assay: condition: 1.2 mg·mL^−1 (5 μM hexamer/pseudohexamer); SEC; analytical SEC, S200 Increase 3.2/300 GL, 20 mM Tris pH 7.5, 100 mM NaCl, 0.5 mM TCEP; 0.1 mL of 1.2 mg/mL (5 uM hexamer/pseudohexamer) Msp1 with 2 mM ATP, 2 mM MgCl2; 0.1 mL/min; both purified
Conditions: remark: other sources report otherwise

binding: no binding
B1: Msp1 monomer with a C‐terminal twin strep tag (His6‐Msp1 WT‐2xStrep Monomer), soluble, P28737 33-362 (enzyme)
chain: T1 chain
